Measured values published in patent US20130217613A1.
No constants are given. Whether binding was seen depends on the method and setting. Binding seen in cells or lysates may run through a third protein. Some binding calls cover weakened binding; strength is not graded here. Tags and fused reporters may be left off the sequences shown.

By UniProt entry, the sequences of proteins in these tests, tags left out. Residues count along the entry.
UniProt P00514, residues 1-81: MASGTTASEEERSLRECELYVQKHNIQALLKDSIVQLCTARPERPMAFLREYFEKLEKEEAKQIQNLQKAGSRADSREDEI
UniProt Q9C005: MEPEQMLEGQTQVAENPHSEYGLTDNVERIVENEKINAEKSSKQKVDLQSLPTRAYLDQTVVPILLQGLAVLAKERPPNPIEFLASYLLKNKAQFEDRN
UniProt P12367, residues 1-64: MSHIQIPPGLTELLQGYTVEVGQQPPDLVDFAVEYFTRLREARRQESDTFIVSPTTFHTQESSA

B1: GST-tagged RSP3 96-180 (contains the RIIa-binding amphipathic helix AHR at a.a. 161-178) (protein, not shown: a dimerising Fc or GST)
chain: HIDIQTDVYLEELTDTVPEADTSTQTDAFLDRPPTPLFVPQKTGTDAITQIENGDLFDFDFEVEPILEVLVGKVLEQGLMEVLEE
B2: GST-tagged RSP3 245-316 (protein, not shown: a dimerising Fc or GST)
chain: ARGYLSGIVNTVFDRLVSSGYIYDPVMREVETAFMPWLKEQAIGYLARGVVARRVVDKLVEDAAAALAANRS

Assays:
[1] = target: His-RIα D/D (bovine RIα a.a.#1-81) (bovine) (UniProt P00514); assay: Ni-NTA pulldown of co-expressed proteins, Coomassie gel
[2] = target: His-tagged human Dpy-30 protein (full length) (human) (UniProt Q9C005); assay: as above
[3] = target: His-RIIα D/D (mouse RIIα a.a.#1-64) (mouse) (UniProt P12367); assay: as above
[4] = target: His-tagged human Dpy-30 protein (full length) (human) (UniProt Q9C005); assay: Ni-NTA pulldown (discussion of Example 1)
[5] = target: His-RIα D/D (bovine RIα a.a.#1-81) (bovine) (UniProt P00514); assay: Ni-NTA pulldown (discussion of Example 2)
[6] = target: His-RIIα D/D (mouse RIIα a.a.#1-64) (mouse) (UniProt P12367); assay: Ni-NTA pulldown (discussion of Example 2)

| Binder | binding [1] | binding [2] | binding [3] | binding [4] | binding [5] | binding [6] |
| --- | --- | --- | --- | --- | --- | --- |
| B1 | binds | binds | binds | binds | binds | binds |
| B2 | – | binds | – | – | – | – |
| PVMREVETAFMPWLKEQAIGYLARGVVARRVVDKLVEDAAAALAANRS (peptide, not shown: a dimerising Fc or GST) [GST-tagged RSP3 269-316] | – | binds | – | – | – | – |
